Patent US10532082B2, “SOCS1-derived peptide for use in chronic complications of diabetes” (Fundació Hospital Universitari Vall d'Hebron-Institut de …, priority 2014, dated 2020)

Test system: diabetic mice (db/db)
Test: Weight and glycemia in the model of diabetic retinopathy
Format: in vivo
Details: eye drops 15 days

miS1: SEQ ID NO 1 DTHFRTFRSHSDYRRI, kinase inhibitory region of murine SOCS1, bound to lysine-palmitate at the N-terminal end, tyrosine phosphorylated (N-terminal lysine-palmitate; tyrosine phosphorylated; A synthetic “kinase inhibitory region” of murine SOCS1 protien)
Blood glucose level throughout the study: did not affect | body weight throughout the study: did not affect
